For at least one entry, the source does not settle the construct or the ends of the probe. Where cells or extracts were used, other partners may take part. For part of these data: Protein sequences can lack the tags named with them.
Columns and labels:
Experiment in all cases: pull-down
[1] = molecular target: ComEA (Bacillus subtilis PY79 delta-rok) (UniProt P39694); details: protein in an extract; label: biotin on strand 1
[2] = molecular target: T1, ComGC (lysate) (Bacillus subtilis PY79 delta-rok) (UniProt P25955); details: protein in an extract
T1 sequence (looked up, limits assumed): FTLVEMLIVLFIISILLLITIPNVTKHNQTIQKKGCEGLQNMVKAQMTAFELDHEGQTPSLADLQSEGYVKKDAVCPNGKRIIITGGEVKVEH

[3] = molecular target: T2, ComGF (Bacillus subtilis PY79 delta-rok) (UniProt P25958); details: protein in an extract
T2 sequence (looked up, limits assumed): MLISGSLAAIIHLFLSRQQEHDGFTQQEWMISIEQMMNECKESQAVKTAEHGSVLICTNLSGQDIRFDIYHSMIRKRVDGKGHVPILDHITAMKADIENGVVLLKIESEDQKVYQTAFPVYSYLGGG

[4] = molecular target: T3, DprA (Bacillus subtilis PY79 delta-rok) (UniProt P39813); details: protein in an extract
T3 sequence (looked up, limits assumed): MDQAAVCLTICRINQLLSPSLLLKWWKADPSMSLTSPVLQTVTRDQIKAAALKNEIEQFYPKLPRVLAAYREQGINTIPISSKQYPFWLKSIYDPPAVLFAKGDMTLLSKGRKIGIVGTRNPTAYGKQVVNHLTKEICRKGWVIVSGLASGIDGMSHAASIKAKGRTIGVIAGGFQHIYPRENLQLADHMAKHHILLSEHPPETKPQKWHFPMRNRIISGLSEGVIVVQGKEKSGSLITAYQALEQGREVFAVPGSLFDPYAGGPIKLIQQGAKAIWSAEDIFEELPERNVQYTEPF

[5] = molecular target: T4, RecA (Bacillus subtilis PY79 delta-rok) (UniProt P16971); details: protein in an extract
T4 sequence (looked up, limits assumed): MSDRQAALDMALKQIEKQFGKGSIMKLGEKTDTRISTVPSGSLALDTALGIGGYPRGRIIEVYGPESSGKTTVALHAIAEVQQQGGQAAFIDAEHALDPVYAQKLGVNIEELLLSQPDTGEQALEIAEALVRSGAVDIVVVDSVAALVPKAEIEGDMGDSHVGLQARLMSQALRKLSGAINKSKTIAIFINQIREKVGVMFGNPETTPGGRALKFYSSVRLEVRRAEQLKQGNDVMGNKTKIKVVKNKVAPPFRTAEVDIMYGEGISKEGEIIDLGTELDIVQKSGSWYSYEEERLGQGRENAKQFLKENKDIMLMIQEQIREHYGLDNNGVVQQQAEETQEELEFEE

[6] = molecular target: T5, SsbA (Bacillus subtilis PY79 delta-rok) (UniProt P37455); details: protein in an extract
T5 sequence (looked up, limits assumed): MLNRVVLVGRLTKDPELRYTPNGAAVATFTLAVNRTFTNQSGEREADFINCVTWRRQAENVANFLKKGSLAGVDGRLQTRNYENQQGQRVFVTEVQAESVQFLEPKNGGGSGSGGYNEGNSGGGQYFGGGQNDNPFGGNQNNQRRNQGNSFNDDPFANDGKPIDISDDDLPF

[7] = molecular target: T6, SsbB (Bacillus subtilis PY79 delta-rok) (UniProt C0SPB6); details: protein in an extract
T6 sequence (looked up, limits assumed): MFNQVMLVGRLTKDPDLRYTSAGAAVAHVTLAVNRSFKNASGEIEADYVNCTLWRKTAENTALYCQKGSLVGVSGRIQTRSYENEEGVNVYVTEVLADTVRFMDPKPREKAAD

[8] = molecular target: T7, YhaM (Bacillus subtilis PY79 delta-rok) (UniProt O07521); details: protein in an extract
T7 sequence (looked up, limits assumed): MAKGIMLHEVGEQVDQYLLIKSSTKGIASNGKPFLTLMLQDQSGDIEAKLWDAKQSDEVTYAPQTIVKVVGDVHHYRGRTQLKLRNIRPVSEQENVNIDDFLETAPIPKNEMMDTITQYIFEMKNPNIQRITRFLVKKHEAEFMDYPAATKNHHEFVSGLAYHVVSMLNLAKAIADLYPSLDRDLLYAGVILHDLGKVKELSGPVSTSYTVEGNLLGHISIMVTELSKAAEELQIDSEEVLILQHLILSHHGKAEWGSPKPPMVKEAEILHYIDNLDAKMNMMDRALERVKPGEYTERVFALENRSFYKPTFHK

Measured: binding result

TCACAGTGAAAGTTAGTGTGAACTTGCCCCATTTATTGTA (double strand) [pulldown 40 bp dsDNA]
binds: [1] | [2]; label: biotin on strand 1

TCACAGTGAAAGTTAGTGTGAACTTGCCCCATTTATTGTA [pulldown 40 nt ssDNA]
binds: [2] | [3] | [4] | [5] | [6] | [7] | [8]

— article doi:10.1101/2025.11.24.690153
